Laboratory results reported in the supplement of paper PMC10849652.
This is one part of the list.

By UniProt entry, the sequences of proteins in these tests, tags left out. Where a name states a change or a piece, a line headed by the entry shows the natural chain unless it says otherwise.
UniProt Q86UA6: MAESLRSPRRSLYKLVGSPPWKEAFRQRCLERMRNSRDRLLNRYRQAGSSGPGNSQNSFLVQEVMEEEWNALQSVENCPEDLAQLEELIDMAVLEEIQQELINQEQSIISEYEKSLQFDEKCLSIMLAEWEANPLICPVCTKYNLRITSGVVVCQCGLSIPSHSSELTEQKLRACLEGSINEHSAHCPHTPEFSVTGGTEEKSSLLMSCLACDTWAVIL
UniProt Q15418, whole entry, looked up: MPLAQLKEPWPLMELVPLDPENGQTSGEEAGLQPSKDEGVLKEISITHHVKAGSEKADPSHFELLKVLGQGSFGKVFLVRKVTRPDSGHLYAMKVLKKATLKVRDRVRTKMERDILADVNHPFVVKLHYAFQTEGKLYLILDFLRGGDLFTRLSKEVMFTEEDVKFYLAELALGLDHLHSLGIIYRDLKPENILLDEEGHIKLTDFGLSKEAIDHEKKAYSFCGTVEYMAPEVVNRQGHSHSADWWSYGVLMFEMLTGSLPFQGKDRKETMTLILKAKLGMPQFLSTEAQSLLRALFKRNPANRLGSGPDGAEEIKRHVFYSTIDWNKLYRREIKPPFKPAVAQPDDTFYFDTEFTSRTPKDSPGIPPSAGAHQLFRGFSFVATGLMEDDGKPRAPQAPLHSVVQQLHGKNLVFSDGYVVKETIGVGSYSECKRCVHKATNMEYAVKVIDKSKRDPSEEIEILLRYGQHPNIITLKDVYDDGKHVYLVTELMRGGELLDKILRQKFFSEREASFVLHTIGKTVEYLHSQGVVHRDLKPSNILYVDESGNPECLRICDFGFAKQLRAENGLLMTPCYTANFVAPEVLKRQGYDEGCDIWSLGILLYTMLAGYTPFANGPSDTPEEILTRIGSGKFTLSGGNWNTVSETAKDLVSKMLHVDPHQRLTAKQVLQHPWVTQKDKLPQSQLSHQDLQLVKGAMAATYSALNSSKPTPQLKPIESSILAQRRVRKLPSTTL
UniProt Q9H633: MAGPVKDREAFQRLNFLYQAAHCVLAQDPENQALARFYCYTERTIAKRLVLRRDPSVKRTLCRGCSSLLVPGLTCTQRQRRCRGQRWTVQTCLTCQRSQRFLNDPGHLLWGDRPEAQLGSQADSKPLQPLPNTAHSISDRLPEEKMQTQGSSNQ
UniProt P49247: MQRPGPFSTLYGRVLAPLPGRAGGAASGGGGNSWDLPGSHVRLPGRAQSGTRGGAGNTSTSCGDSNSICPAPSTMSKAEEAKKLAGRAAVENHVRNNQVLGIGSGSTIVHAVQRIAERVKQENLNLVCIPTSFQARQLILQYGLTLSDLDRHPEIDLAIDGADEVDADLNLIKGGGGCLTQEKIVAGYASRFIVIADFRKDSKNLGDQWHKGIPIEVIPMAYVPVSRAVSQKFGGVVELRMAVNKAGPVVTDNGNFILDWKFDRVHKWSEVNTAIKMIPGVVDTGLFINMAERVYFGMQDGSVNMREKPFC
UniProt Q8N5L8: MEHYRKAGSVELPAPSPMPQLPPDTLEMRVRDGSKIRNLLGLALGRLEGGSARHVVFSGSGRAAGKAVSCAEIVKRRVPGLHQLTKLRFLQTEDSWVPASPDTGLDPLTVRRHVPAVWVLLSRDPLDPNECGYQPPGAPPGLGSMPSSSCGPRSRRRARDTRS
UniProt Q5VZM2, whole entry, looked up: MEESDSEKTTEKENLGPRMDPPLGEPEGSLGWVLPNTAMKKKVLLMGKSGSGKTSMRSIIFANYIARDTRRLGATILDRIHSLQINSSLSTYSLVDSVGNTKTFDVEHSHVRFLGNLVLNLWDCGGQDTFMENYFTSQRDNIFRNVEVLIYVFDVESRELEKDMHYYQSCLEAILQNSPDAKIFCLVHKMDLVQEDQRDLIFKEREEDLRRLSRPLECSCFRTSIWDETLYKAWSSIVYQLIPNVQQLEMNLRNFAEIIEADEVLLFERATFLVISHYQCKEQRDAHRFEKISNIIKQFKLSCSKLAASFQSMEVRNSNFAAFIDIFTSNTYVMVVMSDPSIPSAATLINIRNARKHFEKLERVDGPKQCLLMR
UniProt O95059: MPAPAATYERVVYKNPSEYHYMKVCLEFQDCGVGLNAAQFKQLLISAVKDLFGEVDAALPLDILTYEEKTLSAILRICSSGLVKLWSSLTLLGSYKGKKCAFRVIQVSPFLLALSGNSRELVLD
UniProt O75695: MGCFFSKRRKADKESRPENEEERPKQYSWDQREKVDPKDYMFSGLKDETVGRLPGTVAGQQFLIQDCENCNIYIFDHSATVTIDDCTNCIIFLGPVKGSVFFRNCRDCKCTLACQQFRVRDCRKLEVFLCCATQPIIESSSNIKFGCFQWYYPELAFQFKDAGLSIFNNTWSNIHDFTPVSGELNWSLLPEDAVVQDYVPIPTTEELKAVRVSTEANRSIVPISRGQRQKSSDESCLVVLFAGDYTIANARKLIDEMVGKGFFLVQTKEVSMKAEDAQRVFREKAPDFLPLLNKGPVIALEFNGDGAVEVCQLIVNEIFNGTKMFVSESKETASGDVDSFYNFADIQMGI
UniProt O43148, whole entry, looked up: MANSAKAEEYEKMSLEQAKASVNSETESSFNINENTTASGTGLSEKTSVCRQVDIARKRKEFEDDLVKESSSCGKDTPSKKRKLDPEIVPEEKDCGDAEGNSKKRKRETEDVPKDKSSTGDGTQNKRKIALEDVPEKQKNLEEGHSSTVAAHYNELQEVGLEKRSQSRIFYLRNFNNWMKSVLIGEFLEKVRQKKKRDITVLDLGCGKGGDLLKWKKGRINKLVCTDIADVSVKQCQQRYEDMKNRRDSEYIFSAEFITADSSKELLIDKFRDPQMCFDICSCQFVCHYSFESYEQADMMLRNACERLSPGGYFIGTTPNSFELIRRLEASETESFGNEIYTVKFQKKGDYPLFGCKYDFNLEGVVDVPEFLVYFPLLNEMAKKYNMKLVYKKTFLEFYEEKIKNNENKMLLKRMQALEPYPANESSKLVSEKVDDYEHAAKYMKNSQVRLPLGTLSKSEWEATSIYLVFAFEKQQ
UniProt Q9H6T3, whole entry, looked up: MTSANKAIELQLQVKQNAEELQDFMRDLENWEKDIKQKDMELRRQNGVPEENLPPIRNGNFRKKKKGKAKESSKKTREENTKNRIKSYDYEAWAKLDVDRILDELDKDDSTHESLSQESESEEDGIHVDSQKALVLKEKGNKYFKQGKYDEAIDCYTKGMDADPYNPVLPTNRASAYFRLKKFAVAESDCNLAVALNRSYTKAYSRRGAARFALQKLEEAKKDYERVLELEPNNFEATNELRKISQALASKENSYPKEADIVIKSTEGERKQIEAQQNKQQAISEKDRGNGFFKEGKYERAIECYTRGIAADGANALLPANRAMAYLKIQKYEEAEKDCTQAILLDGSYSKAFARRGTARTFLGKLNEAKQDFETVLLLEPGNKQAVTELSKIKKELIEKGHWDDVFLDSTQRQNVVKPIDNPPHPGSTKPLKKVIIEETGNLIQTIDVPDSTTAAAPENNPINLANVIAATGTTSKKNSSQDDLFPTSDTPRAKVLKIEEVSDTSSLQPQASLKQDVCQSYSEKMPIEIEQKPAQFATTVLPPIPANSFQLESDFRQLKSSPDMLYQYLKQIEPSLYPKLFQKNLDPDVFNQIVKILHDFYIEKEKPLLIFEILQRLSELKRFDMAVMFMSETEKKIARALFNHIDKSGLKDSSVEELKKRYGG
UniProt O75116: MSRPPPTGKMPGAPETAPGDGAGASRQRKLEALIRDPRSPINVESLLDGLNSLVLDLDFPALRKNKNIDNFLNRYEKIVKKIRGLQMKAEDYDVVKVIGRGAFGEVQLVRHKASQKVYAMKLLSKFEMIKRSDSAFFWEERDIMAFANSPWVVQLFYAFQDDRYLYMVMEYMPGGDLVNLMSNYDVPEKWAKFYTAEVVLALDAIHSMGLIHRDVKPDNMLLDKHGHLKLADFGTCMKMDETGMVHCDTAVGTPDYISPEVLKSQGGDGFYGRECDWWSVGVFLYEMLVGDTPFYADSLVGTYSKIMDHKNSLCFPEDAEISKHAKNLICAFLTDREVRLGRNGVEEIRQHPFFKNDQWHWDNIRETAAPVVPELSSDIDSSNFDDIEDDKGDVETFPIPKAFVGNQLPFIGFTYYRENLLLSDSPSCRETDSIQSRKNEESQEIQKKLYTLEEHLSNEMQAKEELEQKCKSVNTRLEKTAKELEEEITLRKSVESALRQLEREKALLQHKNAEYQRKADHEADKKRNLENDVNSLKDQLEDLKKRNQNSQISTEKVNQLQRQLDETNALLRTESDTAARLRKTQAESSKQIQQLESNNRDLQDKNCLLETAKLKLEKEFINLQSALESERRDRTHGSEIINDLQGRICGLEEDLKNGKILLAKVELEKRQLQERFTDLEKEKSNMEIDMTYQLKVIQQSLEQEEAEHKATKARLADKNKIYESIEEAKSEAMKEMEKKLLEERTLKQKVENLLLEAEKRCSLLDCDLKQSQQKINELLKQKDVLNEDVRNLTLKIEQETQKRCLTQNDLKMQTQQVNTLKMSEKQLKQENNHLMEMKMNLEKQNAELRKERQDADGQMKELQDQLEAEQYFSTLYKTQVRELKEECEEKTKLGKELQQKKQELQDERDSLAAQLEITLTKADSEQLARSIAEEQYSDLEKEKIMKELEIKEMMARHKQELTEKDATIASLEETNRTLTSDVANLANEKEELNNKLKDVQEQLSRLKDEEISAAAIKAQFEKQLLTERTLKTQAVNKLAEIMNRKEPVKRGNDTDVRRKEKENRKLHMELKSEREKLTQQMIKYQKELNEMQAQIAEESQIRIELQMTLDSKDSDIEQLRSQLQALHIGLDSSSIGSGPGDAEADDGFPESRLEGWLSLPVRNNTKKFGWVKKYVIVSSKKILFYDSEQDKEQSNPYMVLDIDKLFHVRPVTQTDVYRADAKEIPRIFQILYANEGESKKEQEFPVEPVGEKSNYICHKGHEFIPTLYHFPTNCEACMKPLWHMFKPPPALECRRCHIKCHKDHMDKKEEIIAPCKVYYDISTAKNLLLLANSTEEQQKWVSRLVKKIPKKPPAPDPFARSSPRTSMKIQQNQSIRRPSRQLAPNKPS
UniProt Q8IZ73: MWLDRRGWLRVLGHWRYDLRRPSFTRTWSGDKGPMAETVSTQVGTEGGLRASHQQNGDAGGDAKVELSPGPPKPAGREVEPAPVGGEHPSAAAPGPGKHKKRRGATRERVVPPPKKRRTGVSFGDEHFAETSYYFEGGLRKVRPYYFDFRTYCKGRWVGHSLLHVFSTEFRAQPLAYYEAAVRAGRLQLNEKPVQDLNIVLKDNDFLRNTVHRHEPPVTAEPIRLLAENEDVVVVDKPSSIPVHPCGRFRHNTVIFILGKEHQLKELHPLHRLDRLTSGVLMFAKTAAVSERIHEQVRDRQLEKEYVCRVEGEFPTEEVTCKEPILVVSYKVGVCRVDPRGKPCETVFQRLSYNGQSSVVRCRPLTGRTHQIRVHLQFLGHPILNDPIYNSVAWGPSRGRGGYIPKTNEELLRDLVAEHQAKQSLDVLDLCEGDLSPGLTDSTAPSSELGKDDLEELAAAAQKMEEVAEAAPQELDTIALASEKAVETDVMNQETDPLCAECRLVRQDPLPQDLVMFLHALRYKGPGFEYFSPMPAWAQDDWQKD
UniProt Q9H4A4: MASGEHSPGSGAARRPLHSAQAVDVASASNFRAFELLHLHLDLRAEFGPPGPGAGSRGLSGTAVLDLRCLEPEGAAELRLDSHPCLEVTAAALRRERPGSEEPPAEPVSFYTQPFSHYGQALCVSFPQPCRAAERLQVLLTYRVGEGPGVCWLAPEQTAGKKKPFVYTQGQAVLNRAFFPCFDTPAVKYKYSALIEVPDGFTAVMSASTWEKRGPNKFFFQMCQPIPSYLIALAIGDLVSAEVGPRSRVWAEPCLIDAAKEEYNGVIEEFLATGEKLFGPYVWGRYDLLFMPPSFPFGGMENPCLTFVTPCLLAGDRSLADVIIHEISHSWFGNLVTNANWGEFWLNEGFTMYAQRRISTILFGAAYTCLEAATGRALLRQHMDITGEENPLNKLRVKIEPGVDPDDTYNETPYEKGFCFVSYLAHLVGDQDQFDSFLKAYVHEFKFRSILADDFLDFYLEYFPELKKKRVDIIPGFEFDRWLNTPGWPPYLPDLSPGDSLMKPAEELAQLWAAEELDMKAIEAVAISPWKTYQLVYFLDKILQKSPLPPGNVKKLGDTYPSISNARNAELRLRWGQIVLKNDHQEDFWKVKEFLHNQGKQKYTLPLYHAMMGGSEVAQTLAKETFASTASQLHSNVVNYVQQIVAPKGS
UniProt Q7L523, whole entry, looked up: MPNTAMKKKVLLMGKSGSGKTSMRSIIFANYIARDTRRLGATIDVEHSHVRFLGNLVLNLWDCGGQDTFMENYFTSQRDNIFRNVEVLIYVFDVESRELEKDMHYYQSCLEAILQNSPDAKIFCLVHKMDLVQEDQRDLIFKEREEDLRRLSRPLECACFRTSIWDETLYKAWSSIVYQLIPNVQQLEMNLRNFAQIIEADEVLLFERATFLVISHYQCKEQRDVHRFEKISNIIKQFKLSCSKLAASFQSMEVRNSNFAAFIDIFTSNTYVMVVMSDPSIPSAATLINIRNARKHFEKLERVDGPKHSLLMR
UniProt P05386, whole entry, looked up: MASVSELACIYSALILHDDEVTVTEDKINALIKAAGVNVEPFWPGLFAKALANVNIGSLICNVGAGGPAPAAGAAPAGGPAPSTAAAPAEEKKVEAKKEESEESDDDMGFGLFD

What was measured:
Assay in all cases: log2 fold change, soluble protein after heating vs DMSO (PISA); higher = thermal stabilisation; K562 cells, 10 uM, 30 min; active = over 0.2 and 3.5 SD of the protein, either way, in both replicates (recomputed)
[1] = compound: C1=CC=C(C=C1)[C@H](COC2=CC3=C(C=C2)NC(=O)N3)NC(=O)C4=CC=CN(C4=O)CC5=CC(=C(C=C5)F)F
Summary of the method: (§1)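 Aliquots of K562 cells (2×10^6 cells/mL) treated with 10 μM compound for 30 min were heated for 3 min over 48°C-58°C. After pooling and extraction in PBS with 0.5% NP-40 at 4°C, soluble protein from a 21,000xg, 90 min spin was quantified by TMTpro 16plex LC-MS/MS with channel sums equalised. Thermal stability is expressed against control samples, from duplicates, as a log2 fold change.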

[2] = compound: CC1=C(SC2=C1C(=N[C@H](C3=NN=C(N32)C)CC(=O)N)C4=CC=C(C=C4)Cl)C
Summary of the method: as §1

[3] = compound: CC1=C2C(=CC=C1)N=C(N(C2=O)C3=CC=CC=C3C)CN4C=NC5=C(N=CN=C54)N
Summary of the method: as §1

[4] = compound: Cc1sc2c(c1C)C(c1ccc(Cl)cc1)=N[C@@H](CC(=O)OC(C)(C)C)c1nnc(C)n1-2
Summary of the method: as §1

[5] = compound: c1ccc([C@@H]2C[C@H]2NC2CCNCC2)cc1
Summary of the method: as §1

Measured: log2 fold change

RPS19 (UniProt P39019)
inactive: [1] 0.108 | [2] -0.158 | [3] -0.197 | [4] 0.107 | [5] -0.002

RPAIN isoform 8 (UniProt Q86UA6)
inactive: [1] 0.026 | [2] 0.057 | [3] 0.046 | [4] -0.038 | [5] 0.006

RPS6KA1 isoform 2 (UniProt Q15418)
inactive: [1] -0.059 | [2] 0.048 | [3] 0.051 | [4] -0.009 | [5] -0.018

RNF34 isoform 2 (UniProt Q969K3)
inactive: [1] 0.022 | [2] -0.081 | [3] 0.067 | [4] 0.07 | [5] 0.062

RPS6KA3 (UniProt P51812)
inactive: [1] -0.044 | [2] 0.05 | [3] 0.036 | [4] -0.034 | [5] -0.006

RPP21 isoform 4 (UniProt Q9H633)
inactive: [1] -0.004 | [2] 0.099 | [3] 0.099 | [4] 0.037 | [5] -0.054

RPIA (UniProt P49247)
inactive: [1] -0.006 | [2] 0.003 | [3] 0.047 | [4] -0.014 | [5] -0.013

RPN2 (UniProt P04844)
inactive: [1] 0.006 | [2] 0.004 | [3] -0.012 | [4] -0.022 | [5] -0.012

RPL27A (UniProt P46776)
inactive: [1] 0.174 | [2] -0.473 | [3] -0.496 | [4] 0.337 | [5] 0

RPL36A (UniProt P83881)
inactive: [1] 0.198 | [2] -0.286 | [3] -0.323 | [4] 0.218 | [5] 0

RPS27A (UniProt P62979)
inactive: [1] 0.076 | [2] -0.111 | [3] -0.281 | [4] 0.108 | [5] -0.025

RPP25L (UniProt Q8N5L8)
inactive: [1] 0.032 | [2] -0.018 | [3] 0.026 | [4] 0.143 | [5] 0.033

RPL10 (UniProt P27635)
inactive: [1] 0.14 | [2] -0.401 | [3] -0.447 | [4] 0.245 | [5] 0

RPS6 (UniProt P62753)
inactive: [1] 0.116 | [2] -0.241 | [3] -0.687 | [4] 0.116 | [5] 0

RRAGB (UniProt Q5VZM2)
inactive: [1] 0.046 | [2] -0.028 | [3] -0.088 | [4] -0.01 | [5] 0.02

RPP14 (UniProt O95059)
inactive: [1] 0.044 | [2] -0.023 | [3] -0.028 | [4] 0.002 | [5] -0.009

RPS15 (UniProt P62841)
inactive: [1] 0.126 | [2] -0.113 | [3] -0.02 | [4] 0.122 | [5] 0.106

RPL34 (UniProt P49207)
inactive: [1] 0.274 | [2] -0.589 | [3] -0.649 | [4] 0.314 | [5] -0.001

RRBP1 (UniProt Q9P2E9)
inactive: [1] 0.054 | [2] -0.342 | [3] -0.259 | [4] 0.35 | [5] 0

RPL32 (UniProt P62910)
inactive: [1] 0.197 | [2] -0.439 | [3] -0.556 | [4] 0.249 | [5] -0.002

RP2 (UniProt O75695)
inactive: [1] 0.022 | [2] 0.043 | [3] 0.133 | [4] -0.093 | [5] -0.049

RPS20 isoform 2 (UniProt P60866)
inactive: [1] -0.002 | [2] -0.114 | [3] -0.051 | [4] 0.059 | [5] 0

RPLP0 (UniProt P05388)
inactive: [1] 0.243 | [2] -0.523 | [3] -0.573 | [4] 0.281 | [5] 0

RPL10A (UniProt P62906)
inactive: [1] 0.253 | [2] -0.523 | [3] -0.735 | [4] 0.333 | [5] -0.001

RPL30 (UniProt P62888)
inactive: [1] 0.236 | [2] -0.551 | [3] -0.581 | [4] 0.295 | [5] 0

RPS14 (UniProt P62263)
inactive: [1] 0.041 | [2] -0.162 | [3] -0.238 | [4] 0.078 | [5] -0.036

RPL4 (UniProt P36578)
inactive: [1] 0.237 | [2] -0.569 | [3] -0.749 | [4] 0.344 | [5] -0.001

RPS4X (UniProt P62701)
inactive: [1] 0.105 | [2] -0.255 | [3] -0.232 | [4] 0.148 | [5] 0.001

RPL13A (UniProt P40429)
inactive: [1] 0.204 | [2] -0.54 | [3] -0.741 | [4] 0.335 | [5] 0

Pulled one by one from above (3):
RPS14 (UniProt P62263)
inactive: [1] 0.041 | [2] -0.162 | [3] -0.238 | [4] 0.078 | [5] -0.036

RPL30 (UniProt P62888)
inactive: [1] 0.236 | [2] -0.551 | [3] -0.581 | [4] 0.295 | [5] 0

RPL10A (UniProt P62906)
inactive: [1] 0.253 | [2] -0.523 | [3] -0.735 | [4] 0.333 | [5] -0.001

The listing continues.

RNMT isoform 2 (UniProt O43148)
inactive: [1] 0.064 | [2] -0.021 | [3] 0.017 | [4] 0.032 | [5] 0.059

RPAP3 (UniProt Q9H6T3)
inactive: [1] -0.095 | [2] 0.029 | [3] 0.052 | [4] 0.029 | [5] -0.016

RPS3 (UniProt P23396)
inactive: [1] 0.055 | [2] -0.118 | [3] -0.127 | [4] 0.083 | [5] 0.015

RPL18 (UniProt Q07020)
inactive: [1] 0.268 | [2] -0.648 | [3] -0.673 | [4] 0.399 | [5] 0.003

RPL26L1 (UniProt Q9UNX3)
inactive: [1] 0.094 | [2] -0.24 | [3] -0.335 | [4] 0.19 | [5] -0.01

RPTOR (UniProt Q8N122)
inactive: [1] -0.022 | [2] -0.015 | [3] 0.095 | [4] -0.02 | [5] 0.032

ROCK2 (UniProt O75116)
inactive: [1] -0.026 | [2] 0.003 | [3] 0.085 | [4] 0.024 | [5] -0.01

RPUSD2 (UniProt Q8IZ73)
inactive: [1] 0.013 | [2] 0.002 | [3] -0.001 | [4] 0.011 | [5] 0.004

RPS5 (UniProt P46782)
inactive: [1] 0.049 | [2] -0.144 | [3] -0.214 | [4] 0.082 | [5] 0.001

RPS3A (UniProt P61247)
inactive: [1] 0.053 | [2] -0.162 | [3] -0.139 | [4] 0.099 | [5] 0

RPL35 (UniProt P42766)
inactive: [1] 0.203 | [2] -0.358 | [3] -0.356 | [4] 0.294 | [5] 0

RPS27L (UniProt Q71UM5)
inactive: [1] 0.038 | [2] -0.035 | [3] 0.007 | [4] 0.084 | [5] -0.124

RNPEP (UniProt Q9H4A4)
inactive: [1] -0.043 | [2] 0.05 | [3] 0.047 | [4] -0.015 | [5] -0.021

RRAGA (UniProt Q7L523)
inactive: [1] 0.004 | [2] 0.004 | [3] -0.045 | [4] -0.035 | [5] -0.002

RPL37 (UniProt P61927)
inactive: [1] 0.092 | [2] -0.429 | [3] -0.248 | [4] 0.2 | [5] 0

RPS23 (UniProt P62266)
inactive: [1] 0.151 | [2] -0.312 | [3] -0.179 | [4] 0.246 | [5] -0.034

RPS15A (UniProt P62244)
inactive: [1] 0.11 | [2] -0.296 | [3] -0.258 | [4] 0.187 | [5] 0.004

RPS12 (UniProt P25398)
inactive: [1] 0.032 | [2] -0.092 | [3] -0.066 | [4] 0.011 | [5] -0.019

RPL23A (UniProt P62750)
inactive: [1] 0.16 | [2] -0.256 | [3] -0.342 | [4] 0.156 | [5] 0

RPL13 (UniProt P26373)
inactive: [1] 0.25 | [2] -0.599 | [3] -0.664 | [4] 0.408 | [5] 0.022

RPSA (UniProt P08865)
inactive: [1] 0.011 | [2] -0.024 | [3] 0.012 | [4] 0.039 | [5] 0.002

RNH1 (UniProt P13489)
inactive: [1] -0.055 | [2] 0.025 | [3] 0.068 | [4] -0.04 | [5] -0.032

RPLP1 (UniProt P05386)
inactive: [1] 0.159 | [2] -0.389 | [3] -0.739 | [4] 0.172 | [5] 0.199

RPL39P5 (UniProt Q59GN2)
inactive: [1] 0.215 | [2] -0.438 | [3] -0.263 | [4] 0.261 | [5] 0.028
